Experimental data published in the supplement of paper PMC8728848.
Some of the results follow.

Assays:
Experiment in all cases: glycan array binding signal (z-score within array); higher = stronger binding
Settings in all cases: glycan notation: IUPAC condensed, linker removed
[1] = biological target: GalNAc(b1-4)GlcNAc(b1-2)Man
Summary of the method: (§1)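 Glycan array data were curated from 3228 arrays in the Consortium for Functional Glycomics database and kept only where the protein sequence was available. Glycan names were converted to IUPAC-condensed notation, and columns mapping to the same glycan were averaged. The binding signal is a within-array Z-score, averaged across arrays of the same protein sequence at different concentrations or buffers and across linkers. Negative Z-scores can be read as non-binding.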

[2] = biological target: GalNAc(b1-4)GlcNAc(b1-2)Man(a1-3)[GalNAc(b1-4)GlcNAc(b1-2)Man(a1-6)]Man(b1-4)GlcNAc(b1-4)GlcNAc
Summary of the method: as §1

[3] = biological target: GalNAc(b1-4)GlcNAc(b1-3)GalNAc(b1-4)GlcNAc
Summary of the method: as §1

GalNAc(b1-4)GlcNAc6S = biological target: GalNAc(b1-4)GlcNAc6S
Summary of the method: as §1

GalNAc(b1-6)GalNAc = biological target: GalNAc(b1-6)GalNAc
Summary of the method: as §1

GalNAc3S(b1-4)GlcNAc = biological target: GalNAc3S(b1-4)GlcNAc
Summary of the method: as §1

GalNAc3S(b1-4)GlcNAc3S = biological target: GalNAc3S(b1-4)GlcNAc3S
Summary of the method: as §1

[4] = biological target: GalNAc3S(b1-4)[Fuc(a1-3)]GlcNAc
Summary of the method: as §1

GalNAc4S6S(b1-4)GlcNAc = biological target: GalNAc4S6S(b1-4)GlcNAc
Summary of the method: as §1

GalNAc6S(b1-4)GlcNAc = biological target: GalNAc6S(b1-4)GlcNAc
Summary of the method: as §1

Glc(a1-4)Glc = biological target: Glc(a1-4)Glc
Summary of the method: as §1

[5] = biological target: Glc(a1-4)Glc(a1-4)Glc(a1-4)Glc
Summary of the method: as §1

Glc(a1-6)Glc(a1-6)Glc = biological target: Glc(a1-6)Glc(a1-6)Glc
Summary of the method: as §1

[6] = biological target: Glc(a1-6)Glc(a1-6)Glc(a1-6)Glc
Summary of the method: as §1

Glc(b1-4)Glc = biological target: Glc(b1-4)Glc
Summary of the method: as §1

Glc(b1-6)Glc = biological target: Glc(b1-6)Glc
Summary of the method: as §1

GlcA(b1-3)Gal = biological target: GlcA(b1-3)Gal
Summary of the method: as §1

GlcA(b1-3)GlcNAc = biological target: GlcA(b1-3)GlcNAc
Summary of the method: as §1

GlcA(b1-6)Gal = biological target: GlcA(b1-6)Gal
Summary of the method: as §1

[7] = biological target: GlcA3S(b1-3)Gal(b1-4)GlcNAc(b1-2)Man
Summary of the method: as §1

[8] = biological target: GlcA3S(b1-3)Gal(b1-4)GlcNAc(b1-3)Gal(b1-4)Glc
Summary of the method: as §1

[9] = biological target: GlcNAc(a1-3)Gal(b1-4)GlcNAc
Summary of the method: as §1

[10] = biological target: GlcNAc(a1-4)Gal(b1-3)GlcNAc
Summary of the method: as §1

[11] = biological target: GlcNAc(a1-4)Gal(b1-4)GalNAc
Summary of the method: as §1

[12] = biological target: GlcNAc(a1-4)Gal(b1-4)GlcNAc
Summary of the method: as §1

[13] = biological target: GlcNAc(a1-4)Gal(b1-4)GlcNAc(b1-3)Gal(b1-4)Glc
Summary of the method: as §1

[14] = biological target: GlcNAc(a1-4)Gal(b1-4)GlcNAc(b1-3)Gal(b1-4)GlcNAc
Summary of the method: as §1

[15] = biological target: GlcNAc(a1-4)Gal(b1-4)GlcNAc(b1-3)Gal(b1-4)GlcNAc(b1-3)Gal(b1-4)GlcNAc
Summary of the method: as §1

[16] = biological target: GlcNAc(a1-4)Gal(b1-4)GlcNAc(b1-3)Gal(b1-4)[Fuc(a1-3)]GlcNAc(b1-3)Gal(b1-4)[Fuc(a1-3)]GlcNAc
Summary of the method: as §1

[17] = biological target: GlcNAc(a1-6)Gal(b1-4)GlcNAc
Summary of the method: as §1

[18] = biological target: GlcNAc(b1-2)Gal(b1-3)GalNAc
Summary of the method: as §1

[19] = biological target: GlcNAc(b1-2)Man(a1-3)[GlcNAc(b1-2)Man(a1-6)]Man(b1-4)GlcNAc(b1-4)GlcNAc
Summary of the method: as §1

[20] = biological target: GlcNAc(b1-2)Man(a1-3)[GlcNAc(b1-2)Man(a1-6)]Man(b1-4)GlcNAc(b1-4)[Fuc(a1-6)]GlcNAc
Summary of the method: as §1

[21] = biological target: GlcNAc(b1-2)Man(a1-3)[GlcNAc(b1-4)][GlcNAc(b1-2)Man(a1-6)]Man(b1-4)GlcNAc(b1-4)GlcNAc
Summary of the method: as §1

[22] = biological target: GlcNAc(b1-2)Man(a1-3)[GlcNAc(b1-4)][GlcNAc(b1-2)Man(a1-6)]Man(b1-4)GlcNAc(b1-4)[Fuc(a1-6)]GlcNAc
Summary of the method: as §1

[23] = biological target: GlcNAc(b1-2)[GlcNAc(b1-4)]Man(a1-3)[GlcNAc(b1-2)Man(a1-6)]Man(b1-4)GlcNAc(b1-4)GlcNAc
Summary of the method: as §1

[24] = biological target: GlcNAc(b1-2)[GlcNAc(b1-4)]Man(a1-3)[GlcNAc(b1-4)][GlcNAc(b1-2)Man(a1-6)]Man(b1-4)GlcNAc(b1-4)GlcNAc
Summary of the method: as §1

[25] = biological target: GlcNAc(b1-2)[GlcNAc(b1-4)]Man(a1-3)[GlcNAc(b1-4)][GlcNAc(b1-2)[GlcNAc(b1-6)]Man(a1-6)]Man(b1-4)GlcNAc(b1-4)GlcNAc
Summary of the method: as §1

[26] = biological target: GlcNAc(b1-2)[GlcNAc(b1-4)]Man(a1-3)[GlcNAc(b1-4)][GlcNAc(b1-2)[GlcNAc(b1-6)]Man(a1-6)]Man(b1-4)GlcNAc(b1-4)[Fuc(a1-6)]GlcNAc
Summary of the method: as §1

[27] = biological target: GlcNAc(b1-2)[GlcNAc(b1-6)]Man(a1-6)[GlcNAc(b1-2)Man(a1-3)]Man(b1-4)GlcNAc(b1-4)GlcNAc
Summary of the method: as §1

[28] = biological target: GlcNAc(b1-2)[GlcNAc(b1-6)]Man(a1-6)[GlcNAc(b1-2)Man(a1-3)]Man(b1-4)GlcNAc(b1-4)[Fuc(a1-6)]GlcNAc
Summary of the method: as §1

[29] = biological target: GlcNAc(b1-2)[GlcNAc(b1-6)]Man(a1-6)[GlcNAc(b1-4)][GlcNAc(b1-2)Man(a1-3)]Man(b1-4)GlcNAc(b1-4)GlcNAc
Summary of the method: as §1

GlcNAc(b1-3)Fuc = biological target: GlcNAc(b1-3)Fuc
Summary of the method: as §1

GlcNAc(b1-3)Gal = biological target: GlcNAc(b1-3)Gal
Summary of the method: as §1

[30] = biological target: GlcNAc(b1-3)Gal(b1-3)GalNAc
Summary of the method: as §1

B1: Mermaid2 (Stilbonema majum) (protein)
chain: MGSSHHHHHHSSGLVPRGSHMAASGWLRSPQGTVVKLYRRSLSWSKADEFCKDVDGRLVVDRTADMHLFLIKNVLKEKKSRVWVGLRRTAPHSRTWIWSDGTRQNEDDLNTNLWLRDEPNDAAGEEECALFMYSPWEKAWGLNDYLCRGGCRSYQFICEKGIR
glycan array binding signal (z-score) [1]: -0.335 | glycan array binding signal (z-score) [2]: -0.174 | glycan array binding signal (z-score) [3]: 1.06 | glycan array binding signal (z-score) (GalNAc(b1-4)GlcNAc6S): 4.64 | glycan array binding signal (z-score) (GalNAc(b1-6)GalNAc): -0.009 | glycan array binding signal (z-score) (GalNAc3S(b1-4)GlcNAc): 0.218 | glycan array binding signal (z-score) (GalNAc3S(b1-4)GlcNAc3S): 0.017 | glycan array binding signal (z-score) [4]: 0.003 | glycan array binding signal (z-score) (GalNAc4S6S(b1-4)GlcNAc): -0.786 | glycan array binding signal (z-score) (GalNAc6S(b1-4)GlcNAc): -0.098 | glycan array binding signal (z-score) (Glc(a1-4)Glc): 0.102 | glycan array binding signal (z-score) [5]: -0.065 | glycan array binding signal (z-score) (Glc(a1-6)Glc(a1-6)Glc): 0.555 | glycan array binding signal (z-score) [6]: -0.783 | glycan array binding signal (z-score) (Glc(b1-4)Glc): 0.418 | glycan array binding signal (z-score) (Glc(b1-6)Glc): 0.148 | glycan array binding signal (z-score) (GlcA(b1-3)Gal): -0.454 | glycan array binding signal (z-score) (GlcA(b1-3)GlcNAc): 1.37 | glycan array binding signal (z-score) (GlcA(b1-6)Gal): -0.375 | glycan array binding signal (z-score) [7]: -0.81 | glycan array binding signal (z-score) [8]: -0.533 | glycan array binding signal (z-score) [9]: 0.98 | glycan array binding signal (z-score) [10]: -0.752 | glycan array binding signal (z-score) [11]: 0.186 | glycan array binding signal (z-score) [12]: -0.506 | glycan array binding signal (z-score) [13]: -0.806 | glycan array binding signal (z-score) [14]: -0.401 | glycan array binding signal (z-score) [15]: -0.917 | glycan array binding signal (z-score) [16]: -0.315 | glycan array binding signal (z-score) [17]: -0.48 | glycan array binding signal (z-score) [18]: -0.473 | glycan array binding signal (z-score) [19]: -0.35 | glycan array binding signal (z-score) [20]: 0.316 | glycan array binding signal (z-score) [21]: -0.61 | glycan array binding signal (z-score) [22]: -0.881 | glycan array binding signal (z-score) [23]: -0.56 | glycan array binding signal (z-score) [24]: -0.864 | glycan array binding signal (z-score) [25]: -0.879 | glycan array binding signal (z-score) [26]: 0.039 | glycan array binding signal (z-score) [27]: -0.776 | glycan array binding signal (z-score) [28]: -0.217 | glycan array binding signal (z-score) [29]: -0.487 | glycan array binding signal (z-score) (GlcNAc(b1-3)Fuc): -0.172 | glycan array binding signal (z-score) (GlcNAc(b1-3)Gal): -0.448 | glycan array binding signal (z-score) [30]: -0.101
